Reference: US7087394B2, “Methods and compositions for treating and diagnosing diabetes and related diseases involving beta-TRP” (Metabolex, Inc., priority 2003, dated 2006)
For at least one compound, name, drawing or mass did not settle the structure.

Test system: βTRP mRNA
Experiment: βTRP mRNA in islets of ZDF rats, custom rat islet oligonucleotide array
Type: in vivo
Conditions: concomitant treatment, relative to lean control animals

For `Cc1c(C)c2c(c(C)c1O)CCC(C)(COc1ccc(CC3SC(=O)NC3=O)cc1)O2` (stereo not shown) [troglitazone], the “βTRP expression (mRNA) in islets of diabetic ZDF rats” value was “substantially restored”.
